These are yes or no findings as the source states them, for the method shown. In cells and extracts the contact can be indirect. Some results given as binding are weak or reduced against the parent protein; the word gives no strength.
Tests used:
[1] = molecular target: NLRP3 (NLR family, pyrin domain containing 3), endogenous (human (endogenous in THP-1)) (UniProt Q96P20); test: co-IP; NLRP3 immunoprecipitated from the cytosolic fraction of THP-1 cells treated with LPS and with ATP or not; immunoblot for cytochrome c
[2] = molecular target: NLRP3 (NLR family, pyrin domain containing 3), endogenous (human (endogenous in THP-1)) (UniProt Q96P20); test: co-IP; NLRP3 immunoprecipitated from lysates of LPS-primed THP-1 macrophage cells, stimulated with ATP (5 mM, 1 h) or not; immunoblot for cytochrome c; lysis buffer 20 mM HEPES pH 7.4, 0.5% Triton X-100, 0.5% CHAPS, 10% glycerol; 4°C

Amino acid sequences for entries named in this document (tags omitted).
UniProt Q96P20: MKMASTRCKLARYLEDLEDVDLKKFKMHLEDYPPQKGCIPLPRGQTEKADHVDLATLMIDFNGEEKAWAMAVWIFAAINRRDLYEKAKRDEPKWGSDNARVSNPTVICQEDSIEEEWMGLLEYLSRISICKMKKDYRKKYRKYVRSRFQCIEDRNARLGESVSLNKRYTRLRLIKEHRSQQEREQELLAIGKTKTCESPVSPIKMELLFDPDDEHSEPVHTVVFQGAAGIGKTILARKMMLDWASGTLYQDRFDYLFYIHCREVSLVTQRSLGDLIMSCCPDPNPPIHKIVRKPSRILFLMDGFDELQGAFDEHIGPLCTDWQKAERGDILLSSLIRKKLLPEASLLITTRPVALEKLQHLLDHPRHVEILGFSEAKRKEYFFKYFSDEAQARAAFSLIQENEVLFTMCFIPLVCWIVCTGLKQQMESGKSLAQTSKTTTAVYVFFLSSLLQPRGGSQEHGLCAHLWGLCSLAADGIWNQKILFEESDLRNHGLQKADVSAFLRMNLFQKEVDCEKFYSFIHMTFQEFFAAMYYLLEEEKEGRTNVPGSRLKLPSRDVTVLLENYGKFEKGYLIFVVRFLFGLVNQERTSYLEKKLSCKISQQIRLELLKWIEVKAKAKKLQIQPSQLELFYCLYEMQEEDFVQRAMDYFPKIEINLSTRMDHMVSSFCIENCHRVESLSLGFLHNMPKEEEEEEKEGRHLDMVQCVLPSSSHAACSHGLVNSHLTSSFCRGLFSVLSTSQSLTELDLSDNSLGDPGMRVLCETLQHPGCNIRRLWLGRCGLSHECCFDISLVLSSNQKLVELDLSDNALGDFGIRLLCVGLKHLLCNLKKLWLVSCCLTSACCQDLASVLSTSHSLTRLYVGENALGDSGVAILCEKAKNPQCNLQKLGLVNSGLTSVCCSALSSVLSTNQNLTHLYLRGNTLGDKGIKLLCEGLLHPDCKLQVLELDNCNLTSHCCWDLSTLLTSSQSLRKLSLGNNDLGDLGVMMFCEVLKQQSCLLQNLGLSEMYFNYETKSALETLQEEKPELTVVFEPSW
UniProt P99999: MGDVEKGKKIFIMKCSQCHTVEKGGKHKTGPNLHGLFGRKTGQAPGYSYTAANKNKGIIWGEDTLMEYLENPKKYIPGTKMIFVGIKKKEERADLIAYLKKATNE

binding [1]: binds
binding [2]: binds
Substance: cytochrome c, endogenous (from UniProt P99999 1-105)

From publication PMC5193325
